Data source: PubChem BioAssay AID743454 (Peter MacCallum Cancer Centre, 2014)
Aim: 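Knock-downs lowering viability or raising caspase 3/7 activity in vorinostat-treated resistant cells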 (primary screen). Cell system: human HCT116-VR colon cancer cells, selected for vorinostat resistance. Reagent: siRNA pool against human genes, 40 nM siRNA pool. Time to read-out: vorinostat for 24 h, read-out about 72 h after transfection. Conditions: vorinostat at 2.5 µM final. Measured: 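Two measures, CellTiter-Fluor viability and luminescent caspase 3/7 activity, each as fold change against same-plate mock wells, mean of duplicates, then screen-wide robust z-score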. Direction: viability robust z-score: higher = more viable cells than screen typical; caspase robust z-score: higher = more caspase 3/7 activity than screen typical. Call rule: 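a knock-down is a hit when classed RV1 or RV2 for lowered viability, or CA1 or CA2 for caspase activation; those lethal without drug were dropped; hits were retested singly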.
In all, the deposit lists about 18,000 reagents; this is a random part of them. Over the whole deposit, 450 (2.5%) got an active call. 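Single biological run; no consistent viability z cut-off exists, so the class columns, not z-scores, define the calls.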

gene	PubChem SID	viability hit class	caspase hit class	viability robust z-score	caspase robust z-score	Call
FNDC11 (GeneID 79025)	SID134318451	no change	no change	0.98	-0.75	inactive
ARFRP1 (GeneID 10139)	SID134323053	no change	no change	-2.13	0.1	inactive
YES1 (GeneID 7525)	SID152156078	no change	no change	1.46	-0.68	inactive
PITPNB (GeneID 23760)	SID152152054	no change	no change	0.32	-0.54	inactive
AP2B1 (GeneID 163)	SID135620712	no change	no change	-0.15	-0.18	inactive
MPC1 (GeneID 51660)	SID134324158	no change	no change	-0.56	-0.13	inactive
GAS2 (GeneID 2620)	SID134316335	no change	no change	-0.86	-1.02	inactive
MMEL1 (GeneID 79258)	SID152155229	no change	no change	-1.41	1.49	inactive
ITGAX (GeneID 3687)	SID135621488	no change	no change	0.03	0.22	inactive
IKZF5 (GeneID 64376)	SID152150793	no change	no change	0.04	1.43	inactive
TMIGD2 (GeneID 126259)	SID135623082	no change	no change	0.93	0.7	inactive
DOCK11 (GeneID 139818)	SID152151064	no change	no change	-1.65	1.84	inactive
OR10A4 (GeneID 283297)	SID135625070	no change	no change	0.68	-0.37	inactive
RPS13 (GeneID 6207)	SID134315508	no change	no change	-4.81	-1.64	inactive
PFKP (GeneID 5214)	SID56479236	no change	no change	-0.43	-1.02	inactive
CDC40 (GeneID 51362)	SID134317447	no change	no change	-2.34	-1.2	inactive
PSMA4 (GeneID 5685)	SID135623297	no change	no change	-3.96	3.2	inactive
KISS1R (GeneID 84634)	SID152153560	no change	no change	0.61	1.58	inactive
SMNDC1 (GeneID 10285)	SID134320257	no change	no change	0.2	-0.32	inactive
DDR1 (GeneID 780)	SID152155868	no change	no change	-0.62	1.66	inactive
SLC5A9 (GeneID 200010)	SID152147326	no change	no change	0.88	1.36	inactive
STBD1 (GeneID 8987)	SID135623755	no change	no change	-0.5	-0.72	inactive
SAE1 (GeneID 10055)	SID134311772	no change	no change	0.61	-0.44	inactive
PAK6-AS1 (GeneID 644809)	SID135625487	no change	no change	-0.54	0.37	inactive
MRI1 (GeneID 84245)	SID152153531	no change	no change	0.48	-0.88	inactive

Quoted from above, 4 entries:
gene	PubChem SID	viability hit class	caspase hit class	viability robust z-score	caspase robust z-score	Call
STBD1 (GeneID 8987)	SID135623755	no change	no change	-0.5	-0.72	inactive
SAE1 (GeneID 10055)	SID134311772	no change	no change	0.61	-0.44	inactive
PAK6-AS1 (GeneID 644809)	SID135625487	no change	no change	-0.54	0.37	inactive
MRI1 (GeneID 84245)	SID152153531	no change	no change	0.48	-0.88	inactive

More records follow.
gene	PubChem SID	viability hit class	caspase hit class	viability robust z-score	caspase robust z-score	Call
LILRA1 (GeneID 11024)	SID134323623	no change	no change	-4.13	-1.01	inactive
MYO3A (GeneID 53904)	SID152148134	no change	no change	0.06	1.04	inactive
SYNGAP1 (GeneID 8831)	SID134329971	no change	no change	0.46	-0.66	inactive
CGB8 (GeneID 94115)	SID152147808	no change	no change	-0.23	-1.1	inactive
HEXIM2 (GeneID 124790)	SID134320214	no change	no change	-1.14	-1.31	inactive
RNPEP (GeneID 6051)	SID134311453	no change	no change	-0.22	2.24	inactive
WASHC3 (GeneID 51019)	SID152155860	no change	no change	-0.54	0.48	inactive
HCRTR2 (GeneID 3062)	SID134311067	no change	no change	0.35	-0.04	inactive
TMC3 (GeneID 342125)	SID152152458	no change	no change	0.27	-0.24	inactive
CFAP161 (GeneID 161502)	SID152156462	no change	no change	-0.93	-0.31	inactive
USP6 (GeneID 9098)	SID152146862	no change	no change	-0.07	1.52	inactive
SPIRE1 (GeneID 56907)	SID135624367	no change	no change	0.08	-1.13	inactive
B3GAT3 (GeneID 26229)	SID152148805	no change	no change	0.34	0.03	inactive
QTGAL (GeneID 146712)	SID135623725	no change	no change	-0.84	1.5	inactive
ADAMTS16 (GeneID 170690)	SID152149595	no change	no change	1.1	0.14	inactive
PPT1 (GeneID 5538)	SID135621431	no change	no change	1.27	-0.24	inactive
SPTY2D1 (GeneID 144108)	SID152153491	no change	no change	0.14	-1.01	inactive
FOXP4 (GeneID 116113)	SID152149147	no change	no change	-0.47	-0.45	inactive
CCDC69 (GeneID 26112)	SID152151541	no change	no change	-0.6	0.06	inactive
ALG3 (GeneID 10195)	SID135624640	no change	no change	0.9	0.24	inactive
PRR15L (GeneID 79170)	SID134318499	no change	no change	-0.14	2.44	inactive
NPM1 (GeneID 4869)	SID152147277	no change	no change	0.2	-0.76	inactive
ZC3H4 (GeneID 23211)	SID152151069	no change	no change	0.08	-0.96	inactive
FAM43A (GeneID 131583)	SID135623516	no change	no change	-0.49	-0.3	inactive
MTPN (GeneID 136319)	SID135623213	no change	no change	0.21	1.21	inactive
PTH2 (GeneID 113091)	SID135623389	no change	no change	-0.33	1.45	inactive
TBX19 (GeneID 9095)	SID134316223	no change	no change	1.03	-0.08	inactive
APOC4 (GeneID 346)	SID152148756	no change	no change	-0.5	4.32	inactive
CTLA4 (GeneID 1493)	SID135623117	no change	no change	-0.66	-0.11	inactive
RPRD1A (GeneID 55197)	SID152154435	no change	no change	-0.26	1.32	inactive
ST3GAL1 (GeneID 6482)	SID152156367	no change	no change	0.94	-0.26	inactive
OR8B8 (GeneID 26493)	SID134313937	no change	no change	-1.09	-0.62	inactive
